Screening data, single-dose tests

By UniProt entry, the sequences of proteins in these tests, tags left out. Residues count along the entry.
UniProt Q4DA54, 1-478: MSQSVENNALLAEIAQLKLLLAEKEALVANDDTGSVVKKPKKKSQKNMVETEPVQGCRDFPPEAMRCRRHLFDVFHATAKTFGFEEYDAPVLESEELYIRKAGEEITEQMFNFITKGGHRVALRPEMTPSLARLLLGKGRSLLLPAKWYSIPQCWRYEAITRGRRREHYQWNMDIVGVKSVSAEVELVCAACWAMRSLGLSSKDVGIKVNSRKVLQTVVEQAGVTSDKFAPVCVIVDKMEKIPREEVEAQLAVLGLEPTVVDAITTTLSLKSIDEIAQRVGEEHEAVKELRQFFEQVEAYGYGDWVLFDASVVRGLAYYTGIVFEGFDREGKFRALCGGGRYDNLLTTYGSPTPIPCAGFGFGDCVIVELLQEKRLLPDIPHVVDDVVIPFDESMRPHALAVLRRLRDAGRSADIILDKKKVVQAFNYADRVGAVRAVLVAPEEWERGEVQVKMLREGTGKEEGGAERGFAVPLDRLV
UniProt P9WNZ1, whole entry: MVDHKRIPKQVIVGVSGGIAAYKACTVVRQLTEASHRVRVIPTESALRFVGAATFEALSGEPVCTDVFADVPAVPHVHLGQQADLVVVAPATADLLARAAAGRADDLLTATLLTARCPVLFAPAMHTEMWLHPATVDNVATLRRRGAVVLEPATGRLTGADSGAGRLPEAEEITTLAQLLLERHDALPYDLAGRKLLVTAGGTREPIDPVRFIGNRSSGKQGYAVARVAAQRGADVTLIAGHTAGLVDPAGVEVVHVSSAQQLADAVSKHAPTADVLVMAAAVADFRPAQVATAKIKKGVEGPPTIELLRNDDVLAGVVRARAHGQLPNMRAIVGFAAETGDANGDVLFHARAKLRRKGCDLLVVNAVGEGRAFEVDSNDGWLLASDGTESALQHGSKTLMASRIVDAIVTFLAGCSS
UniProt P9WPC5, whole entry: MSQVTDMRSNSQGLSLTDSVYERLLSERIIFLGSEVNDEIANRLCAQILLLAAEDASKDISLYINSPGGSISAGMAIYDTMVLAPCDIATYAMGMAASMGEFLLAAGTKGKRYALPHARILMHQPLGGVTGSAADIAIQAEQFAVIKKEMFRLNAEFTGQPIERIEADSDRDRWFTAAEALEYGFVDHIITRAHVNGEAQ
UniProt P9WPC3, whole entry partner: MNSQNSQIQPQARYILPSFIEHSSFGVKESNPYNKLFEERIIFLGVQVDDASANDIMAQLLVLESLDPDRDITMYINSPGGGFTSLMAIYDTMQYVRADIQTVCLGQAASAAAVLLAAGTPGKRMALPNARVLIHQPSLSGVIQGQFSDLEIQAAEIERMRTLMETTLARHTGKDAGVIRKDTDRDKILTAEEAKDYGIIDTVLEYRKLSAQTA
UniProt Q8IDJ8, 1-583: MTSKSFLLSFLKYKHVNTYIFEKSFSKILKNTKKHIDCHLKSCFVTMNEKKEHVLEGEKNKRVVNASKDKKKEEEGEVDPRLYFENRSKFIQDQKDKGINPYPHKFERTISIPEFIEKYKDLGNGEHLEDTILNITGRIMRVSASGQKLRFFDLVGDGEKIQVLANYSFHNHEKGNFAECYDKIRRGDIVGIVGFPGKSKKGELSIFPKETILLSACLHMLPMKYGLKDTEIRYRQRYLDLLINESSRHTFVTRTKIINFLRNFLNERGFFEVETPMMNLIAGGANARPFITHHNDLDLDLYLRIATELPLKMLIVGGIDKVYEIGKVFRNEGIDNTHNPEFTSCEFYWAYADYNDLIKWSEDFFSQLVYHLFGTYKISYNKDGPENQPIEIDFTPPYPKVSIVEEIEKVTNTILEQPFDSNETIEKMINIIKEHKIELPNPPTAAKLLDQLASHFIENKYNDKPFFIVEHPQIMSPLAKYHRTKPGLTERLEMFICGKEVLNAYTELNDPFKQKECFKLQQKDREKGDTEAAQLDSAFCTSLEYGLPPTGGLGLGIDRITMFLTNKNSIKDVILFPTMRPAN

The values are deposited in ChEMBL (CHEMBL3988442, “University of Dundee, Small-Polar-MMV Screening Library” (2021)).

Results are given as percent effect.
The record does not define 0% and 100%; most values in the screen are far below 50% and negative numbers occur (in some assays of this library far below -100).
Compounds were drawn at random from those tested, without regard to their results.
Two or more numbers in one place are separate tests of the same structure; such repeats can differ widely.
A dash means the value is not listed here; it may have been measured.

A: 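Cell assay of Leishmania donovani living inside macrophages; the read-out is not stated. Tested at 30 µM. Higher reads as stronger inhibition (inferred: compounds with an IC50 in retests scored well above the rest). Size under these conditions: about 69,000 compounds, about 1,000 of them at 50% or above in at least one test.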
B: 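Enzyme assay of histidyl-tRNA synthetase; the read-out is not stated. Target: Histidine-tRNA ligase, Trypanosoma cruzi CL Brener (UniProt Q4DA54). Tested at 30 µM. Direction is inferred from retests: higher values go with stronger inhibition. About 69,000 compounds were tested under these conditions; 0.045% (about 31) showed 50% or more at least once.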
C: 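Enzyme assay of CoaBC with a phosphate dye (Biomol Green) read at 650 nm. Target: Coenzyme A biosynthesis protein CoaBC, Mycobacterium tuberculosis (UniProt P9WNZ1). Tested at 30 µM. Higher reads as stronger inhibition, judged from the few compounds that gave an IC50. Most strong results did not repeat in a second test. About 67,000 compounds were tested under these conditions; 0.06% (about 40) showed 50% or more at least once.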
D: 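Protease assay of ClpP1P2, read by the AMC dye that it sets free. Target: ClpP1P2, Mycobacterium tuberculosis (UniProt P9WPC5 and UniProt P9WPC3). Compounds at 50 µM. Direction is inferred from only a few compounds that gave an IC50; most scored high, so higher reads as stronger inhibition. Most other retested compounds had strongly negative values. Size under these conditions: about 69,000 compounds, about 10 of them at 50% or above in at least one test.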
E: 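Enzyme assay of the cytosolic lysyl-tRNA synthetase in 384-well plates, read by luminescence. Target: Lysine-tRNA ligase, Plasmodium falciparum 3D7 (UniProt Q8IDJ8). Concentration: 30 µM. Higher reads as stronger inhibition, judged from the few compounds that gave an IC50. About 69,000 compounds were tested under these conditions; 0.071% (about 49) showed 50% or more at least once.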

Compound	A	B	C	D	E
Cc1ccccc1CN(Cc1ccc(S(C)(=O)=O)cc1)CC(C)C	-26.55	8.163	10.58	-3.628	8.307
Cc1occc1C(=O)NCC1OCCc2cn(C)nc21.O=C(O)C(F)(F)F (stereo not shown)	19.07	-	-	-	-
C=C(C)COc1ccccc1CNCCc1cc(O)nc(C)n1	-2.78	6.438	-1.555	2.885	1.962
COCCC(=O)N1CCN(CC2CC2)c2nc(C)ccc2C1	-	4.598	-3.074	3.676	3.943
CCc1nc(CN2CCCC(NCc3nnc(C4CC4)n3C)C2)no1 (stereo not shown)	3.828	5.539	6.789	-45.97	-1.233
CCc1nc(C2CCCN2C(=O)CCc2c(C)noc2Cl)no1 (stereo not shown)	19.78	1.734	6.513	-34.67	1.871
O=S1(=O)NC(c2ccnc(N3CCCCC3)n2)=Nc2ccccc21	-12.12	-7.28	-2.184	-0.08288	-0.4836
CCC(CO)N(Cc1cccs1)C(=O)Cc1ccncc1 (stereo not shown)	8.728	0	1.474	-9.992	4.209
CCOc1ncccc1C(=O)N1CCCC(n2nc(C)cc2C)C1 (stereo not shown)	22.39	7.623	5.584	-13.83	10.51
CCCc1cc(N2CCC(NC3CCS(=O)(=O)C3)CC2)nc(C)n1 (stereo not shown)	13.56	-9.662	-2.112	-14.72	7.425
O=C1COc2cc(C(=O)NS(=O)(=O)c3ccc(F)cc3F)ccc2N1	-0.7928	0	-4.042	-3.516	0.6747
CCC(=O)N1CCCC1c1nc(N(C)C)ncc1-c1ccc(Cl)cc1 (stereo not shown)	12.65	6.154	-2.138	-11.25	0.6102
CN1C[C@@H](C(=O)N2CCOCC2)[C@@]2(CCc3ccccc3C(=O)N2)C1	0.0295	6.513	4.612	-17	-0.7919
CCc1nn(C)c2[nH]nc(NC(=O)c3ccccc3COC)c12	0.4065	3.067	2.433	-5.404	3.707
CC(NC(=O)CCc1cccs1)c1nnc2n1CCC2 (stereo not shown)	23.13	-0.3831	3.71	0.4182	-1.545
CN(Cc1cnn(C)c1)C(=O)NCc1nnc2n1CCC2	34.9	-3.008	1.285	3.289	3.283
CC(C)CNC(=O)CN1C=Nc2ccccc2S1(=O)=O	-6.926	0.7576	2.17	-5.685	-3.136
CNc1ncc(-c2ccnn2C2CCN(C(C)=O)CC2)cn1	27.98 and -11.74	4.52	4.699	-3.544	2.2
CC(C)(C)c1cnc(CN2CCC[C@H]2CO)o1	24.27	2.29	0.7229	-3.086	3.35
Cn1nc(CNc2ncccn2)c2c1CN(c1cnccn1)CC2	5.985	7.735	5.446	-14.35	4.551
Cn1nc(C2CCCN(Cc3ccccc3)C2)c2nccnc21 (stereo not shown)	-	8.889	2.906	-1.498	2.407
CC(C)Oc1ccc(CC2=N[C@](C)(CO)CO2)cc1	2.62	1.554	-5.729	13.45	-5.556
FC(F)(F)c1cc(-c2cccs2)nc(N2CCN3CCCC3C2)n1 (stereo not shown)	-20.41	4.95	4.612	-30.66	-3.765
CN(C)C(=O)CNC(=O)c1ccc2ccc(N(C)CC3CC3)n2c1	-1.308	6.25	2.118	15.73	4.899
Cn1ccc(C(=O)N2CCCC(n3cncn3)C2)cc1=O (stereo not shown)	10.1	-0.3774	3.333	0.9501	6.147
C[C@@H]1CN(C(=O)c2nc3sccn3c2-c2ncc[nH]2)C[C@H](C)O1	-13.72	4.95	-0.8505	-20.27	4.755
O=C(O)C(F)(F)F.[H][C@]12CCN(C(=O)c3ccc4[nH]ccc4c3)C[C@@]1([H])OCCN(CC1CC1)C2	47.4	-	-	-	-
Fc1ccc(Nc2ccc(C3CCN(Cc4ncc[nH]4)CC3)nc2)nc1	17.01	0.8571	9.132	-39.35	0.5741
Cn1cnnc1CCNC(=O)c1ccccc1OC1CCC1	0.446	3.03	4.214	-1.755	1.046
CC(=O)C1(c2ccccc2)CCN(C(=O)c2ccn3nnnc3c2)CC1	29.82	3.017	0.6337	-13.33	4.444
O=C(c1ccccn1)N1CCN(C(c2ccccc2)C(F)(F)F)CC1 (stereo not shown)	3.547	3.448	-3.571	-0.3257	-0.8676
Cc1ncsc1C(=O)N1CCC(O)(CN2CCc3ccccc3C2)C1 (stereo not shown)	15.52 and 7.696	-1.099	-2.427	-9.655	-3.985
CC(Cc1cn(CCc2n[nH]c(=O)[nH]2)nn1)c1ccccc1 (stereo not shown)	39.26	8.458	5.679	-12.74	0.6986
CCCc1nccn1-c1ccc(C(C)O)cc1 (stereo not shown)	11.33	10.53	-	-3.044	4.696
CCc1c(C)sc2nc3n(CCN(C)C)nc(SC)n3c(=O)c12	24.34	4.969	-2.405	-1.777	7.766
CN(C[C@H]1CN2CC[C@H]1C[C@@H]2CNC(=O)c1ccco1)c1ccccc1	-	3.261	-17.88	3.334	3.632
CC(C)(C)c1nnc(CN2CCN(S(C)(=O)=O)CC2)o1	-0.4374	-1.667	3.198	2.765	-4.648
Cc1n[nH]c(C)c1CCC(=O)N[C@@H]1CCC[C@@H](Oc2ccccc2)[C@@H]1O	6.501	4.615	9.501	3.219	-1.947
CN(C(=O)c1cccnc1OCC(F)F)c1ccc2c(c1)CCO2	23.58	-0.8403	-2.016	-2.248	3.913
Cc1ncsc1CCN(C)C(=O)CN1CC2(CCNCC2)OC1=O	-12.11	-1.685	0.6036	8.179	4.393
O=C1N[C@@H]2CCN(C(=O)C3CCCC3)[C@@H]2C(=O)N1c1ccc(F)cc1	-	2.97	18.28	-5.86	3.461
Cc1cc(C)c2ncn(CC(C)(C)CO)c(=O)c2c1	-2.864	6.579	-	5.781	3.677

Some entries from above, unchanged:

Compound,A,B,C,D,E
CNc1ncc(-c2ccnn2C2CCN(C(C)=O)CC2)cn1,27.98 and -11.74,4.52,4.699,-3.544,2.2
Cn1ccc(C(=O)N2CCCC(n3cncn3)C2)cc1=O (stereo not shown),10.1,-0.3774,3.333,0.9501,6.147
CCc1nc(CN2CCCC(NCc3nnc(C4CC4)n3C)C2)no1 (stereo not shown),3.828,5.539,6.789,-45.97,-1.233